Measured values published in publication PMC6843786, “Temporin-SHa and Its Analogs as Potential Candidates for the Treatment of Helicobacter pylori” (Biomolecules, 2019).
Non-standard residues stand in square brackets, D forms with d. Residues, ends and D or L forms follow the SMILES beside them.

Tested on: N87 cells
Experiment: In vitro toxicity assay using human gastric cells (resazurin)
Format: cell-based
Details: IC50 on N87 divided by MIC on H. pylori (ATCC 43504)
Protocol: [26] Human gastric cells N87 (ATCC CRL-5822) were cultured in RPMI-1640 medium supplemented with 10% fetal calf serum (FCS), 1% L-glutamine and 1% antibiotics (all from Invitrogen, Carlsbad, CA, USA) and were routinely seeded onto 25 cm^2 flasks maintained in a 5% CO2 incubator at 37 °C. For the toxicity assay, cells grown on 25 cm^2 flasks were detached using trypsin–EDTA solution (from Thermofisher), counted using Mallasez counting chamber and seeded into 96-well cell culture plates (Greiner Bio-one) at approximately 10^4 cells per well. The cells were left to grow for 48–72 h at 37 °C in a 5% CO2 incubator until they reached confluence. Plates were then aspirated and increasing concentrations of peptides were added to the cells for 48 h at 37 °C in a 5% CO2 incubator, volume of water corresponding to the volume of peptides being used as negative control. At the end of the incubation, wells were aspirated, and cell viability was evaluated using resazurin-based in vitro toxicity assay kit (Sigma-Aldrich) following manufacturer’s instructions. […] After 4 h incubation at 37 °C, fluorescence intensity was measured using microplate reader (Synergy Mx, Biotek) with an excitation wavelength of 530 nm and an emission wavelength of 590 nm. The fluorescence values were normalized by the controls and expressed as percent viability.

Row | SMILES | TI (IC50/MIC)
1 | CC[C@H](C)[C@H](NC(=O)[C@@H](C)NC(=O)[C@H](CO)NC(=O)[C@H](CC(C)C)NC(=O)[C@@H](N)Cc1ccccc1)C(=O)N[C@H](C(=O)NCC(=O)N[C@@H](CCSC)C(=O)N[C@@H](CC(C)C)C(=O)NCC(=O)N[C@@H](CCCCN)C(=O)N[C@@H](CC(C)C)C(=O)N[C@@H](Cc1ccccc1)C(N)=O)C(C)C [NST2, H-Phe^1-Leu^2-Ser^3-D-Ala^4-Ile^5-Val^6-Gly^7-Met^8-Leu^9-Gly^10-Lys^11-Leu^12-Phe^13-NH2] (H-FLS[dA]IVGMLGKLF-NH2) | 99.76
2 | CC[C@H](C)[C@H](NC(=O)CNC(=O)[C@H](CO)NC(=O)[C@H](CC(C)C)NC(=O)[C@@H](N)Cc1ccccc1)C(=O)N[C@H](C(=O)NCC(=O)N[C@@H](CCSC)C(=O)N[C@@H](CC(C)C)C(=O)N[C@H](C)C(=O)N[C@@H](CCCCN)C(=O)N[C@@H](CC(C)C)C(=O)N[C@@H](Cc1ccccc1)C(N)=O)C(C)C [NST1, H-Phe^1-Leu^2-Ser^3-Gly^4-Ile^5-Val^6-Gly^7-Met^8-Leu^9-D-Ala^10-Lys^11-Leu^12-Phe^13-NH2] (H-FLSGIVGML[dA]KLF-NH2) | 60.27
